The values below come from PubChem BioAssay AID488840 (Broad Institute, 2010).

Chains of the proteins cited; added tags and fusions are not shown. Lines headed by an entry give the natural chain unless they say otherwise; changes in a name come on top.
UniProt O75164: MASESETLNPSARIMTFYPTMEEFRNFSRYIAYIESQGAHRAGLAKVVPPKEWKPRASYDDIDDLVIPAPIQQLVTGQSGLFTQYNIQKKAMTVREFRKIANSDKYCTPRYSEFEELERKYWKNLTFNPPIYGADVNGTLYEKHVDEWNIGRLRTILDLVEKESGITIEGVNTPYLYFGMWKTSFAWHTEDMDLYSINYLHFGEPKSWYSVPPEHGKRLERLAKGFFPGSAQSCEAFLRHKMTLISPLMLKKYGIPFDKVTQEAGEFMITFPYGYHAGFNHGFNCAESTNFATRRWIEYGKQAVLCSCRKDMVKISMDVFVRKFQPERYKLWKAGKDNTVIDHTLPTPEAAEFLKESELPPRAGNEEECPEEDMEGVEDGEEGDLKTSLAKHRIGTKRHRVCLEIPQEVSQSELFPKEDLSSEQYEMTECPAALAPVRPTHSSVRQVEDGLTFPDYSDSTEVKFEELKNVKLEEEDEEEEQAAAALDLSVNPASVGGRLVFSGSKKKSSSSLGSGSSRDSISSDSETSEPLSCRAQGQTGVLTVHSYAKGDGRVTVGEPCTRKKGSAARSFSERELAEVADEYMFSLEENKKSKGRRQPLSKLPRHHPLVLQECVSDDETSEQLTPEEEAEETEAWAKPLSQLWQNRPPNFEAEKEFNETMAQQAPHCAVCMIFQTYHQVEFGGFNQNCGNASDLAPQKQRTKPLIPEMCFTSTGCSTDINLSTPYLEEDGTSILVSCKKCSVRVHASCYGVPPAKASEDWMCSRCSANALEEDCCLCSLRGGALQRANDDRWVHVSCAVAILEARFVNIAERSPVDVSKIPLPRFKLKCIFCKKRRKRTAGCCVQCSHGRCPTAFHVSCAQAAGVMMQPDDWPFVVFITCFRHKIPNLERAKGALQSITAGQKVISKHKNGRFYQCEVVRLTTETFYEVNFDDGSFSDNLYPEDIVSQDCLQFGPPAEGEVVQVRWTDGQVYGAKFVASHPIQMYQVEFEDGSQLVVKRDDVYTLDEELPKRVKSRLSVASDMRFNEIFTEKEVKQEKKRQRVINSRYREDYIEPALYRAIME

The campaign covered roughly 1,400 compounds. About 45 (3%) were called active.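 How the source made its calls: active means half-maximal dose of signal decrease from fit no higher than ten times the top valid tested dose; inconclusive means fit invalid, or curve flat with 30 to 70% inhibition; inactive means the rest.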 Some of the results follow. Results with a measured potency or affinity are listed apart.

The target of the experiment is Lysine-specific demethylase 4A (Homo sapiens) (UniProt O75164). The experiment in a line: inhibition of JMJD2A H3K9me3 demethylation – biochemical, DELFIA europium, cherry-picked samples, selectivity assay for GASC-1 inhibitor project, dose response (AID 488840).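 Further: europium signal reports the dimethyl H3K9 product detected by antibody so inhibitors lower it; 0% = median of neutral control wells and -100% = median of positive control wells.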 Particulars: GST-JMJD2A(1-420) H3K9me3 demethylation; at 6 µM (top of the series) unless noted.
On to `Cc1noc(C)c1S(=O)(=O)N(C)C[C@H]1Oc2c(cccc2N(C)C)C(=O)N([C@H](C)CO)C[C@@H]1C`, for which the activity change, negative = inhibition is inactive: -2.38%.
To `c1ccc2c(c1)ccc1nnc(-c3ccc4c(c3)OCO4)n12` belongs inactive: 3.37%; to `COc1ccc(C2CC(c3cccs3)=NN2S(=O)(=O)c2ccc(C)cc2)cc1` (stereo not given), inactive: 7.91%.
As for `Cc1cccc(N2CCN(C(=O)c3ccc(CS(=O)(=O)c4ccccc4C)o3)CC2C)c1` (stereo not given), the figure is inactive: 4.2%; as for `Cc1cccc(OCCCn2c(=O)oc3ccc(C)cc32)c1`, inactive: 0.479%.
Consider `CCCC(=O)Nc1ccc(Oc2ccc(NC(=O)CCC)cc2)cc1`, for which the activity change, negative = inhibition is inactive: 0.263%.
As to `COc1ccc(/C=N/n2c(=O)[nH]c3c([nH]c4ccc(Br)cc43)c2=O)cc1CN1CCOCC1`, the activity change, negative = inhibition is inactive: 2.87%.
As for `CCOc1ccc(N2CC(C(=O)Nc3nnc(Cc4ccc(OC)cc4)s3)CC2=O)cc1` (stereo not given), the figure is inactive: -2.52%.
Turning to `CNC[C@@H]1Oc2c(NC(=O)Nc3ccccc3)cccc2C(=O)N([C@@H](C)CO)C[C@H]1C`, the activity change, negative = inhibition is inactive: 0.201%.
To `CCOC(=O)c1csc(N/N=C2\CCc3ccccc32)n1` belongs inactive: -1.87%.
As for `OC1(c2cccc(F)c2)CCN(Cc2ccncc2)CC1`, the figure is inactive: 0.57%.
`CNC(=O)c1sccc1-n1cccc1`: the activity change, negative = inhibition is inactive: -1.48%.
As for `CC(=O)N1CCc2cc(S(=O)(=O)NC(CC(C)C)C(=O)Nc3cc(C(=O)O)ccc3C)ccc21` (stereo not given), the figure is inactive: -4.87%; as for `O=C1/C(=C/c2cccs2)COc2ccccc21`, inactive: 2.89%; as for `NC(=O)NC(=O)CSc1nnc(-c2ccco2)n1Cc1ccccc1`, inactive: -0.393%.
To `O=C(Nc1ccc(Cl)c(C(F)(F)F)c1)NC1CC2CCCC(C1)N2Cc1ccccc1` (stereo not given) belongs inactive: -1.41%; to `COC(=O)[C@]1(C)N[C@H](CN(C)C(=O)Nc2ccccc2)[C@@H]2C(=O)N(Cc3ccccc3)C(=O)[C@@H]21`, inactive: 6.46%.
`COc1ccc(-n2cc(CNCCc3cscn3)c(-c3ccccc3Cl)n2)cc1`: the activity change, negative = inhibition was inactive: -8.2%.
As for `Cc1ccccc1NC(=S)c1nc2ccccc2[nH]1`, the figure is inactive: -0.0357%; as for `C[C@H](CO)N1C[C@H](C)[C@@H](CN(C)S(C)(=O)=O)Oc2ccc(N(C)C)cc2C1=O`, inactive: 2.91%.
As for `O=[N+]([O-])c1ccccc1NCc1ccc(Cl)cc1`, the figure is inactive: -3.88%; as for `O=C(NCCCNCCCNC(=O)c1ccc(/C=N/O)nc1)c1ccc(/C=N/O)nc1`, inactive: 14%.
To `CCN(C[C@H]1N[C@@](CC)(C(=O)OC)[C@H]2C(=O)N(C)C(=O)[C@@H]12)S(=O)(=O)c1ccc(C(F)(F)F)cc1` belongs inactive: 12.9%; to `NCc1nc(-c2ccc(Cl)cc2)no1`, inactive: -3.41%.
In the case of `O=C(CSc1nnc(CNC(=O)c2ccccc2F)o1)NCCc1ccccc1`, the activity change, negative = inhibition is inactive: 3.34%.
For the molecule `CCOC(=O)N1CCC2(CC1)C(C#N)=C(N)OC1=C2C(=O)CC(C)(C)C1`, the activity change, negative = inhibition was inactive: 1.08%.
As for `CCOC(=O)c1cc2nc(Nc3ccc(OC)cc3)sc2s1`, the figure is inactive: -5.27%; as for `Cn1c(=O)c2[nH]c(N3CCN(c4cccc(O)c4)CC3)nc2n(C)c1=O`, inactive: 1.58%.
As for `Oc1cccc(/C=N/NC(=S)NCCN2CCOCC2)c1O`, the figure is inactive: -6.83%; as for `C#CCOCCOCCOCCNc1nc(N2CCOCC2)nc(N2CCN(C(=O)[C@H](Cc3cc4ccccc4[nH]3)n3cc([C@@H](N)CC(C)C)nn3)CC2)n1`, inactive: -4.26%.
As for `CCOc1cc(/C=C\c2[nH]c(=O)[nH]c(=O)c2[N+](=O)[O-])ccc1OC(C)CC` (stereo not given), the figure is inactive: 2.73%; as for `Cc1cc(N/N=C/c2ccc(O)cc2O)nc(-n2nc(C)cc2C)n1`, inactive: 9.61%.
Consider `Cc1ccc(S(=O)(=O)Nc2ccc3c(c2)C(=O)N([C@H](C)CO)C[C@@H](C)[C@@H](CN(C)C(=O)Nc2cccc4ccccc24)O3)cc1`, for which the activity change, negative = inhibition was inactive: 8.37%.
Regarding `COc1cccc(Oc2nccc(N(C)C)c2C#N)c1`, the activity change, negative = inhibition was inactive: -1.23%.
To `O=C(Cn1cnc2c(OCc3ccccc3)ncnc21)NCCCc1ccccc1` belongs inactive: -1.3%; to `Cc1cccnc1Nc1nc(-c2ccc(O)cc2)cs1`, inactive: 4.45%.
To `COc1cccc(C(C[N+](=O)[O-])c2c(C)[nH]n(-c3ccccc3)c2=O)c1` (stereo not given) belongs inactive: -1.17%; to `Cc1nn(Cc2ccc([N+](=O)[O-])cc2)c(=O)n1-c1cccc(Cl)c1`, inactive: -1.66%; to `Cc1cc(C)nc(NCc2ccc(Cl)cc2)n1`, inactive: -5.33%.
As for `Cc1ccccc1CNc1nnnn1C`, the activity change, negative = inhibition was inactive: -0.727%.
Turning to `O=C(COc1c(CO)cc(Br)cc1CO)NC1CCCc2ccccc21` (stereo not given), the activity change, negative = inhibition was inactive: 4.58%.
To `CC(C)(C)c1ccc(OCCC(=O)NC2=NCCS2)cc1` belongs inactive: 2.6%.
As for `N#Cc1ccc(OCC(=O)N2CCN(S(=O)(=O)c3cccs3)CC2)cc1`, the figure is inactive: -1.96%; as for `Cc1ccc(Nc2c(-c3ccccn3)nc3cc(C)ccn23)cc1`, inactive: -3.14%; as for `COc1ccc(NC(NC(=O)c2cccnc2)C(Cl)(Cl)Cl)cc1` (stereo not given), inactive: -1.64%.
To `Cc1cc(NC(=O)COc2ncnc3sc(C)c(C)c23)no1` belongs inactive: -12%; to `COc1cc2c(cc1OC)C(=O)N1[C@H]3c4cc(C)ccc4OC[C@@H]3[C@H](c3ccccc3)[C@]1(C)C(=O)N2`, inactive: 7.19%; to `CCOC(=O)C1=C(C)N(C)C(C)=C(C(=O)OCC)C1c1cccnc1`, inactive: 13.7%.
Turning to `C=CCN(C(=O)Nc1ccccc1)C1CC(=O)N(c2ccc(OC)cc2)C1=O` (stereo not given), the activity change, negative = inhibition was inactive: 3.88%.
To `CCOc1ccc(N=Cc2c(O)n(-c3cccc(C)n3)c(=O)c3ccccc23)cc1` belongs inactive: 2.65%; to `Cc1ccc(N2NC3(CCN(C(N)=O)CC3)NC2=O)cc1`, inactive: 2.12%; to `COc1ccc(C(=O)OCC(=O)c2ccccc2)cc1S(=O)(=O)N1CCOCC1`, inactive: -7.28%.
Take `CCN(C(=O)C(C)Sc1ccc(S(=O)(=O)N2CCOCC2)cn1)c1ccccc1` (stereo not given): the activity change, negative = inhibition was inactive: 2.79%.
Regarding `NC(=O)C1CCN(C(=O)c2ccc(Oc3cc(Cl)cc(Cl)c3)o2)CC1`, the activity change, negative = inhibition was inactive: 7.13%.
In the case of `Cc1cccc(-n2cnc(C(=O)NNC(=S)Nc3ccccc3)c2)n1`, the activity change, negative = inhibition was inactive: 10.8%.
